Data source: PubChem BioAssay AID1224830 (NIAID, 2016)

Assay: 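Genes whose knock-down alters the TNF-alpha reporter response to LPS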 (primary screen)
Cells: human THP-1 monocytic leukaemia cells, TNF dual-luciferase reporter clone, PMA-differentiated to macrophage-like cells
Knock-down reagent: siRNA pool against human genes, 50 nM
Timing: LPS for 4 h, given about 3 days after siRNA transfection
Challenge: bacterial LPS (TLR4 ligand), 10 ng/ml
Measured: 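Ratio of firefly to renilla light, scaled to the plate median and expressed as a robust z-score per replicate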
Direction: TNF reporter robust z-score: higher = stronger TNF reporter response to LPS
Hit rule: 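Each well counts as active if its z-score is over 2.8 or under -1.5; controls are left without a call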
Here is an unselected part of about 18,000 deposited reagents. About 2,900 of them (16%) count as active. 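Calls are made per well; low scores hint the gene aids the LPS response, high scores that it dampens it.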 Repeated entries: four replicate wells of each siRNA pool.

The first 14 entries as a preview:
gene,PubChem SID,TNF reporter robust z-score,Call
ZRANB2,SID315453261,-1.61,active
ZRANB2,SID315453261,-0.91,inactive
ZRANB2,SID315453261,-0.95,inactive
ZRANB2,SID315453261,-0.55,inactive
MEF2D,SID315449933,-0.58,inactive
MEF2D,SID315449933,-0.59,inactive
MEF2D,SID315449933,-1.2,inactive
MEF2D,SID315449933,-0.6,inactive
INF2,SID315458925,-1.19,inactive
INF2,SID315458925,-1.45,inactive
INF2,SID315458925,-1.32,inactive
INF2,SID315458925,-1.23,inactive
C9orf40,SID315457384,-0.51,inactive
C9orf40,SID315457384,-0.14,inactive

The list itself, repeating the preview:
gene,PubChem SID,TNF reporter robust z-score,Call
ZRANB2,SID315453261,-1.61,active
ZRANB2,SID315453261,-0.91,inactive
ZRANB2,SID315453261,-0.95,inactive
ZRANB2,SID315453261,-0.55,inactive
MEF2D,SID315449933,-0.58,inactive
MEF2D,SID315449933,-0.59,inactive
MEF2D,SID315449933,-1.2,inactive
MEF2D,SID315449933,-0.6,inactive
INF2,SID315458925,-1.19,inactive
INF2,SID315458925,-1.45,inactive
INF2,SID315458925,-1.32,inactive
INF2,SID315458925,-1.23,inactive
C9orf40,SID315457384,-0.51,inactive
C9orf40,SID315457384,-0.14,inactive
C9orf40,SID315457384,-1.26,inactive
C9orf40,SID315457384,0,inactive
RCBTB2,SID315447897,-0.69,inactive
RCBTB2,SID315447897,0.25,inactive
RCBTB2,SID315447897,-1.02,inactive
RCBTB2,SID315447897,-0.71,inactive
RGS4,SID315451120,-0.24,inactive
RGS4,SID315451120,-0.45,inactive
RGS4,SID315451120,-0.37,inactive
RGS4,SID315451120,-0.08,inactive
RHEB,SID315451129,-0.44,inactive
RHEB,SID315451129,-0.7,inactive
RHEB,SID315451129,0.2,inactive
RHEB,SID315451129,0.7,inactive
FOXD2,SID315448718,-0.41,inactive
FOXD2,SID315448718,0.68,inactive
FOXD2,SID315448718,0.08,inactive
FOXD2,SID315448718,0.4,inactive
TECR,SID315453353,2.46,inactive
TECR,SID315453353,0.53,inactive
TECR,SID315453353,0.68,inactive
TECR,SID315453353,2.52,inactive
RBBP7,SID315451070,0.42,inactive
RBBP7,SID315451070,1.66,inactive
RBBP7,SID315451070,0.57,inactive
RBBP7,SID315451070,0.71,inactive
NDUFB3,SID315450178,-1.68,active
NDUFB3,SID315450178,-1.35,inactive
NDUFB3,SID315450178,-1.56,active
NDUFB3,SID315450178,-1.23,inactive
QPCT,SID315455467,,inactive
QPCT,SID315455467,0.92,inactive
QPCT,SID315455467,1.28,inactive
QPCT,SID315455467,2.13,inactive
QPCT,SID315455467,2.64,inactive
VGF,SID315452113,-0.6,inactive
VGF,SID315452113,-0.48,inactive
VGF,SID315452113,-0.86,inactive
VGF,SID315452113,-0.62,inactive
CENPW,SID315464424,-0.57,inactive
CENPW,SID315464424,-0.58,inactive
CENPW,SID315464424,-0.04,inactive
CENPW,SID315464424,0.33,inactive
EFCAB11,SID315460786,-1.3,inactive
EFCAB11,SID315460786,-1.27,inactive
EFCAB11,SID315460786,-2.13,active
EFCAB11,SID315460786,-1.99,active
SLC26A7,SID315461291,-0.07,inactive
SLC26A7,SID315461291,1.17,inactive
SLC26A7,SID315461291,0.7,inactive
SLC26A7,SID315461291,0.5,inactive
ZSCAN9,SID315452275,-0.92,inactive
ZSCAN9,SID315452275,1,inactive
ZSCAN9,SID315452275,0.53,inactive
ZSCAN9,SID315452275,-1.1,inactive
SEC23A,SID315454129,-0.08,inactive
SEC23A,SID315454129,0.5,inactive
SEC23A,SID315454129,0.03,inactive
SEC23A,SID315454129,-0.05,inactive
PNO1,SID315458146,0.38,inactive
PNO1,SID315458146,4.03,active
PNO1,SID315458146,1.38,inactive
PNO1,SID315458146,3.08,active
DYNLT3,SID315451807,-0.98,inactive
DYNLT3,SID315451807,-0.69,inactive
DYNLT3,SID315451807,-0.67,inactive
DYNLT3,SID315451807,-1.02,inactive
GHRL,SID315456873,-1.67,active
GHRL,SID315456873,-1.32,inactive
GHRL,SID315456873,-1.69,active
GHRL,SID315456873,-1.8,active
SYMPK,SID315452421,-0.96,inactive
SYMPK,SID315452421,0.02,inactive
SYMPK,SID315452421,-0.72,inactive
SYMPK,SID315452421,1.19,inactive
FAM222B,SID315457807,1.63,inactive
FAM222B,SID315457807,2.76,inactive
FAM222B,SID315457807,1.92,inactive
FAM222B,SID315457807,3.37,active
SETD6,SID315459561,1.72,inactive
SETD6,SID315459561,1.42,inactive
SETD6,SID315459561,0.92,inactive
SETD6,SID315459561,0.5,inactive
PCCB,SID315450444,-1.07,inactive
PCCB,SID315450444,-0.98,inactive
PCCB,SID315450444,0.6,inactive
PCCB,SID315450444,-0.21,inactive
GALNTL5,SID315462864,0.03,inactive
GALNTL5,SID315462864,0.22,inactive
GALNTL5,SID315462864,0.37,inactive
GALNTL5,SID315462864,0.05,inactive
CCL20,SID315451342,0.79,inactive
CCL20,SID315451342,1.6,inactive
CCL20,SID315451342,0.83,inactive
CCL20,SID315451342,2.06,inactive
NMNAT1,SID315459008,-0.8,inactive
NMNAT1,SID315459008,-0.76,inactive
NMNAT1,SID315459008,-0.83,inactive
NMNAT1,SID315459008,-0.97,inactive
H2AC6,SID315452486,0.75,inactive
H2AC6,SID315452486,3.29,active
H2AC6,SID315452486,2.93,active
H2AC6,SID315452486,3.3,active
ZNF703,SID315459662,1.1,inactive
ZNF703,SID315459662,1.15,inactive
ZNF703,SID315459662,-0.3,inactive
ZNF703,SID315459662,1.11,inactive
ABCA13,SID315462593,0.73,inactive
ABCA13,SID315462593,-0.3,inactive
ABCA13,SID315462593,-0.34,inactive
ABCA13,SID315462593,-0.47,inactive
ING1,SID315449504,-1.55,active
ING1,SID315449504,-0.32,inactive
ING1,SID315449504,-1.13,inactive
ING1,SID315449504,0.89,inactive
TAS2R13,SID315456367,0.32,inactive
TAS2R13,SID315456367,1.23,inactive
TAS2R13,SID315456367,0.97,inactive
TAS2R13,SID315456367,1.27,inactive
SSTR3,SID315451656,-0.55,inactive
SSTR3,SID315451656,0.4,inactive
SSTR3,SID315451656,0.03,inactive
SSTR3,SID315451656,0.36,inactive
OR1J1,SID315464211,0.36,inactive
OR1J1,SID315464211,0.74,inactive
OR1J1,SID315464211,-0.27,inactive
OR1J1,SID315464211,0.15,inactive
